From PubChem BioAssay AID493014 (National Center for Advancing Translational Sciences (NCATS), 2011)
The list shows a part of the results. Shown are side measurements of this screen, not its main read-out; they come without a call. The list favours compounds with an active or inconclusive main result. Words in brackets tell the shape of the fitted curve; partial curves, single points and poor fits give uncertain potencies.

Experiment: qHTS Assay to Find Inhibitors of Chronic Active B-Cell Receptor Signaling
Conditions: ABC-DLBCL IkBa-CBG/CBR reporter, luminescence ratio (green luciferase fused to IkBa over red control in TMD8 lymphoma cells), 4 h
Method in brief: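 TMD8 human ABC-DLBCL cells with doxycycline-inducible IκBα–green luciferase fusion and unfused red luciferase, in 0.5% FBS medium; compounds up to 46 uM, 4 h at 37C. Green/red luminescence ratio, filter-overlap corrected, fitted to concentration-response curves.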

[1] = measured here: CBR red luminescence, cell number
[2] = measured here: IkBa-CBG green luminescence

SMILES | AC50 [1] | AC50 [2]
COCCNC(=O)C(=O)N/N=C/c1cccs1 | 15.8 µM [falling, single point] | 
O=C(Cc1ccccc1)N(Cc1cccnc1)c1nc2c(F)cccc2s1 | 35.5 µM [falling, single point] | 
Fc1ccc(C2CC(c3cccs3)=NN2c2ccccc2)cc1 (configuration not stated) | 0.316 µM [rising, full curve, poor fit] | 
Cn1cc(Cl)c(C(=O)N/N=C/c2ccc(OS(=O)(=O)c3ccccc3)cc2)n1 | 10.3 µM [falling, partial curve, poor fit] | 
COc1ccc(COC(=O)Oc2ccc(CNC(C)=O)cc2OC)c([N+](=O)[O-])c1 | 0.0164 µM [rising, full curve, poor fit] | 
COc1ccc(/C=N/NC(=O)c2cc(C)oc2C)cc1OCc1ccccc1 | 8.91 µM [falling, partial curve, poor fit] | 
Cc1nn(CCOc2ccccc2)c(=O)n1-c1c(F)cccc1F | 1.64 µM [rising, partial curve] | 
Cc1cccc(N(C)C(=O)CN2C(=O)COc3ccc(S(=O)(=O)N4CCCCCC4)cc32)c1 | 1.41 µM [rising, full curve, poor fit] | 
COc1ccc(CN(C(=O)CNC(=O)c2ccco2)C(C(=O)NC2CCCC2)c2ccco2)cc1 (configuration not stated) | 0.259 µM [rising, single point] | 
O=C(COC(=O)c1cccs1)NCc1ccco1 | 14.1 µM [rising, single point] | 
Cc1ccc(S(=O)(=O)Nc2cccc3c2O[C@H](CN(C)C(=O)Nc2cccc4ccccc24)[C@H](C)CN([C@H](C)CO)C3=O)cc1 | 29.1 µM [falling, single point] | 
CC(NC(=O)Cc1ccc(Br)cc1)c1ccccc1 (configuration not stated) | 35.5 µM [rising, single point] | 
Cc1ccc(-n2cc(-c3ccccc3)c3c(NC4CCCC4)ncnc32)cc1 | 2.51 µM [rising, full curve] | 
CC1(C)CC(=O)CC(=NCC(=O)O)C1 | 6.51 µM [rising, single point] | 
CCOc1ccccc1NS(=O)(=O)c1cccs1 | 0.00411 µM [rising, full curve, poor fit] | 
O=S(=O)(c1ccc(Br)cc1)N1CCN(c2cc(-c3ccccc3)nc3ncnn23)CC1 | 29.1 µM [falling, single point] | 
O=C(O)CC1(CC(=O)Nc2ccc3ccccc3c2)CCCCC1 | 5.8 µM [falling, partial curve] | 
Cc1cc(C)cc(N2CN=C3SCC(=O)N3C2)c1 | 6.51 µM [rising, single point] | 
CCn1c(/C=C/c2ccc(O)cc2)nc2ccccc2c1=O | 28.2 µM [falling, single point] | 
COc1cccc(CNCCNC(=O)c2ccco2)c1OC | 0.82 µM [rising, full curve, poor fit] | 
Cn1cc(CC(=O)N2CCN(c3ccc(Cl)cc3)CC2)c2ccccc21 | 5.17 µM [rising, full curve] | 
Cc1ccc(NCc2ccco2)cc1C | 12.6 µM [rising, single point] | 

Arranged by SMILES length (ascending): 3 of the compounds above.
SMILES | AC50 [1] | AC50 [2]
CC(NC(=O)Cc1ccc(Br)cc1)c1ccccc1 (configuration not stated) | 35.5 µM [rising, single point] | 
COc1ccc(/C=N/NC(=O)c2cc(C)oc2C)cc1OCc1ccccc1 | 8.91 µM [falling, partial curve, poor fit] | 
Cn1cc(Cl)c(C(=O)N/N=C/c2ccc(OS(=O)(=O)c3ccccc3)cc2)n1 | 10.3 µM [falling, partial curve, poor fit] | 

Remaining list, next part.

SMILES | AC50 [1] | AC50 [2]
O=C(NCCc1c[nH]c2ccccc12)c1c(Cl)nc2sccn12 | 0.562 µM [rising, full curve, poor fit] | 
O=S(=O)(c1ccc(Cl)nc1)N(Cc1ccccc1)Cc1ccccc1 | 4.11 µM [falling, full curve] | 
COC(=O)c1ccccc1S(=O)(=O)N1CCC(C(=O)NC2CCCCC2C)CC1 (configuration not stated) | 0.164 µM [rising, full curve, poor fit] | 
COc1ccc(C(=O)N/C(=C/c2cccs2)c2nc3ccccc3[nH]2)cc1OC | 20.6 µM [rising, partial curve] | 
O=C(Nn1c(O)c(C=C2N=c3ccccc3=N2)sc1=S)c1cccc(Cl)c1 | 7.08 µM [falling, partial curve] | 
COc1cc(NC(=O)CN2CCN(c3ccccc3F)CC2)c(C)cc1[N+](=O)[O-] | 1.3 µM [rising, full curve, poor fit] | 
COc1ccc(-n2c(=O)n(Cc3ccccc3)c(=O)c3[nH]cnc32)cc1 | 11.2 µM [falling, partial curve, poor fit] | 
CCOC(=O)c1nc2ccccc2c(=O)[nH]1 | 25.1 µM [falling, single point] | 
Cc1cc(C(=O)COC(=O)c2cccs2)c(C)n1-c1c(C)n(C)n(-c2ccccc2)c1=O | 2.24 µM [falling, partial curve] | 
O=c1c2c(-c3ccccc3)csc2nc2c3ccccc3c(NCCN3CCOCC3)nn12 | 25.1 µM [falling, single point] | 
O=C(COc1ccc(Br)cc1Cl)NC(=O)NC1CCCC1 | 10.3 µM [falling, single point] | 
CC(C)(C)C(=O)/C=c1\[nH]c(=O)/c(=C\c2ccc(C#N)cc2)s1 | 2.82 µM [rising, partial curve, poor fit] | 
O=C(CSc1nnc(-c2ccccc2)n1Cc1ccco1)NCc1ccc2c(c1)OCO2 | 0.206 µM [rising, full curve] | 
COc1c(C)cc(C(=O)C2CCCN(S(=O)(=O)N(C)C)C2)cc1C (configuration not stated) | 3.16 µM [rising, partial curve, poor fit] | 
C=CCN1C(=O)C(Cc2cccc(Cl)c2)S/C1=N/N=C/c1ccco1 (configuration not stated) | 8.2 µM [rising, partial curve, poor fit] | 
CCOc1ccccc1NC(=O)CCS(=O)(=O)c1cccc2nsnc12 | 35.5 µM [falling, partial curve, poor fit] | 
O=C(Nc1ccc(N2CCOCC2)cc1)Nc1cnsn1 | 20.6 µM [falling, single point] | 
CC1(C)CC(=O)C2=C(C1)OC1=C(C(=O)CC(C)(C)C1)C2c1ccc(O)cc1O | 35.5 µM [falling, single point] | 
CCCN1CC=C2C(C#N)=C(N)C(C#N)(C#N)C(c3cc(OC)ccc3OC)C2C1 (configuration not stated) | 35.5 µM [falling, partial curve, poor fit] | 
O=C(c1cc(-c2ccc(Cl)cc2)on1)N1CCCC1 | 2.24 µM [falling, full curve] | 
COc1cc(OC)c(C(=O)O/N=C(\N)c2cccc(C)c2)cc1OC | 3.55 µM [rising, partial curve] | 
O=C(N/N=C/c1ccc(Cl)s1)c1ccccc1[N+](=O)[O-] | 5.62 µM [falling, partial curve, poor fit] | 

SMILES | AC50 [1] | AC50 [2]
Cc1ccc2nc(NC(=O)Cc3cccs3)sc2c1 | 5.8 µM [falling, partial curve, poor fit] | 
CC(=O)Nc1ncnc2c1c(-c1ccc(Cl)cc1)nn2C(C)(C)C | 12.6 µM [falling, partial curve] | 
O=C(Nc1ccc2c(c1)CCC2)c1cc2ccccc2o1 | 16.4 µM [falling, single point] | 
CC(=O)Nc1ccc(NC(=O)CSC2=NS(=O)(=O)c3cc(F)ccc3N2)cc1 | 0.517 µM [falling, partial curve, poor fit] | 
O=C(Nc1ccccc1)Nc1ccc2c(c1)CCC2 | 35.5 µM [falling, single point] | 
COc1ccc2cc(C(=O)N/N=C/c3sc4ccccc4c3O)ccc2c1 | 20.6 µM [falling, partial curve] | 
Cc1cc(NC(=O)COc2ccc3ccccc3c2)no1 | 1.58 µM [rising, partial curve, poor fit] | 
COc1cc2sc(NC(=O)c3ccco3)nc2cc1Cl | 1.58 µM [falling, full curve, poor fit] | 
Cc1nnc(NC(=O)c2sc3ccccc3c2Cl)s1 | 17.8 µM [falling, single point] | 
CC(C)(C)CC(C)(C)c1ccc(O)c(CN2CCN(CCC#N)CC2)c1 | 32.6 µM [falling, single point] | 
COCC(C)NC(=O)CSc1ncnc2sc(-c3ccccc3)cc12 (configuration not stated) | 0.112 µM [rising, full curve, poor fit] | 
O=C1c2ccccc2C(=O)N1c1ccc(Cl)cc1 | 1.84 µM [falling, partial curve, poor fit] | 
O=C(CSc1ccc(-c2ccccn2)nn1)N1CCCCC1 |  | 6.31 µM [rising, full curve, poor fit]
COC(=O)c1ccc(NS(=O)(=O)c2cccc3cccnc23)cc1 | 5.17 µM [rising, full curve] | 
COc1cc(C(=O)Nc2ccc(O)cc2C(=O)O)ccc1OC(C)=O | 1 µM [falling, full curve] | 
COc1ccccc1CN(C)C(C)C(=O)Nc1cccc(C(C)=O)c1 (configuration not stated) | 20 µM [rising, single point] | 
COc1cc(OC)cc(C(=O)NC2CCCN(Cc3ccc(Cl)cc3)C2)c1 (configuration not stated) | 25.1 µM [falling, single point] | 
Cc1ccc(O)c(NC(=O)CSc2n[nH]c(-c3ccccc3)n2)c1 | 12.6 µM [falling, single point] | 
Fc1cccc2sc(Nc3nnc(-c4ccco4)o3)nc12 | 0.92 µM [falling, full curve, poor fit] | 23.1 µM [falling, single point]
O=C(NCCC1=CCCCC1)c1cc(S(=O)(=O)N2CCOCC2)c(Cl)cc1Cl | 0.116 µM [falling, full curve, poor fit] | 
Cc1ccccc1CNC(=O)c1ccc(Cl)c([N+](=O)[O-])c1 | 29.1 µM [falling, single point] | 
N#CC(C#N)=Cc1cn(-c2ncc(C(F)(F)F)cc2Cl)c2ccccc12 | 23.1 µM [falling, partial curve, poor fit] | 
